Negatives hold for the conditions tested.

Protein sequences, listed by entry. Tags and fused reporters are not part of them. Residues count along the entry.
UniProt P01375, 77-233: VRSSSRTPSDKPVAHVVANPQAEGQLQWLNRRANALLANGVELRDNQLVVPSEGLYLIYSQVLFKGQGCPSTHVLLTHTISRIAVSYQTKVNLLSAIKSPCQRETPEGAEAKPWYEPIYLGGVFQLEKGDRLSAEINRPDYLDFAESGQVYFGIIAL

This data set addresses TNF-alpha (Homo sapiens) (UniProt P01375). Put plainly: flow cytometry. Conditions: 5'-amino, coupled to magnetic particles; in 10% human serum binding virtually disappeared, no meaningful KD; purified recombinant protein; protein details: biotinylated, R&D Systems; single-stranded DNA. For orientation: In flow cytometry, cells or beads pass a laser one at a time.

As to “ATCCAGAGTGACGCAGCAGGTTAAGGTGTAGGTCCGGGTGGGGGGGTGGGTTGGGGGACTGGTGGACACGGTGGCTTAGT [B01]”, the binding result is “no binding”.

Values taken from US20190324022.
